PubChem BioAssay AID743454, Peter MacCallum Cancer Centre, 2014
Shown is an unselected part of about 18,000 reagents tested. 450 of them (2.5%) were called active. 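Single biological run; no consistent viability z cut-off exists, so the class columns, not z-scores, define the calls.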 Entries without a mark were called inactive. The numbers tell different reagents against one gene apart.

- Screen: 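Genes whose loss kills vorinostat-resistant colon cancer cells under vorinostat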 (primary screen)
- System: human HCT116-VR colon cancer cells, selected for vorinostat resistance
- Knock-down reagent: siRNA pool against human genes, 40 nM siRNA pool
- Duration: vorinostat for 24 h, read-out about 72 h after transfection
- Challenge: vorinostat at 2.5 µM final
- Read-out: 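Two measures, CellTiter-Fluor viability and luminescent caspase 3/7 activity, each as fold change against same-plate mock wells, mean of duplicates, then screen-wide robust z-score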
- Reading the numbers: viability robust z-score: higher = more viable cells than screen typical; caspase robust z-score: higher = more caspase 3/7 activity than screen typical
- Call rule: 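a knock-down is a hit when classed RV1 or RV2 for lowered viability, or CA1 or CA2 for caspase activation; those lethal without drug were dropped; hits were retested singly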

RPL19P9 (GeneID 653314) gave viability hit class no change; caspase hit class no change; viability robust z-score -4.71; caspase robust z-score -0.76.
IL17RE (GeneID 132014) scored viability hit class no change; caspase hit class no change; viability robust z-score 0.17; caspase robust z-score -0.24.
Silencing of ACCS (GeneID 84680) gave: viability hit class no change; caspase hit class no change; viability robust z-score 1.54; caspase robust z-score -0.46.
Knock-down of GBP4 (GeneID 115361) came out at: viability hit class no change; caspase hit class no change; viability robust z-score -0.52; caspase robust z-score 1.44.
Knock-down of CXADR (GeneID 1525) gave: viability hit class no change; caspase hit class no change; viability robust z-score 0.97; caspase robust z-score -0.65.
Against LINC01587 (GeneID 10141) the deposit lists viability hit class no change; caspase hit class no change; viability robust z-score -0.25; caspase robust z-score -0.85.
PDSS1 (GeneID 23590) showed viability hit class no change; caspase hit class no change; viability robust z-score -0.89; caspase robust z-score 0.54.
STRAP (GeneID 11171) scored viability hit class no change; caspase hit class no change; viability robust z-score -1.12; caspase robust z-score 2.44.
TSHZ2 (GeneID 128553) gave viability hit class no change; caspase hit class no change; viability robust z-score -0.11; caspase robust z-score 0.06.
After knock-down of GALNT14 (GeneID 79623), the screen gave viability hit class no change; caspase hit class no change; viability robust z-score 1.31; caspase robust z-score -0.78.
Against GPR176 (GeneID 11245), the values are viability hit class no change; caspase hit class no change; viability robust z-score 0.17; caspase robust z-score -0.05.
Silencing of OR2L3 (GeneID 391192) came out at: viability hit class no change; caspase hit class no change; viability robust z-score -0.52; caspase robust z-score 0.28.
Knock-down of PLA2G2E (GeneID 30814) came out at: viability hit class no change; caspase hit class no change; viability robust z-score -0.76; caspase robust z-score -0.26.
After knock-down of ZSWIM3 (GeneID 140831), the record shows viability hit class no change; caspase hit class no change; viability robust z-score -1.6; caspase robust z-score 1.
Against ADPGK (GeneID 83440), the values are viability hit class no change; caspase hit class no change; viability robust z-score 0.46; caspase robust z-score -0.11.
With knock-down of ANXA13 (GeneID 312), the screen gave viability hit class no change; caspase hit class no change; viability robust z-score 1.6; caspase robust z-score -0.2.
Knock-down of PTPN5 (GeneID 84867) gave: viability hit class no change; caspase hit class no change; viability robust z-score -0.53; caspase robust z-score -0.47.
For COMMD9 (GeneID 29099) #1, the entry reads viability hit class no change; caspase hit class no change; viability robust z-score 0.16; caspase robust z-score -0.55.
Against COMMD9 (GeneID 29099) #2, the entry reads viability hit class no change; caspase hit class no change; viability robust z-score 1.02; caspase robust z-score -0.1.
Knock-down of VPS16 (GeneID 64601) resulted in: viability hit class no change; caspase hit class no change; viability robust z-score -1.44; caspase robust z-score -0.12.
Against MUC17 (GeneID 140453), the entry reads viability hit class no change; caspase hit class no change; viability robust z-score 0.16; caspase robust z-score -0.62.
